# In PubChem BioAssay AID1508600 (Functional Genomics Laboratory (NCATS/FGL), 2020):
# Out of some 53,000 sequences screened, about 3,700 (7%) were called active.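 The calls were made as follows: active = gene knockdowns whose robust z-score for IL-1 alpha signal is at least 2 or at most -2, so actives lie on both sides; inactive = the rest.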 The list shows a part of the results.
# Test: Components of the Cytosolic LPS Sensing Pathway: Gene Identification via Genome-wide siRNA Screen;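 also: robust z of the log signal after scaling to non-targeting control siRNA wells of the plate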
# Details: RAW264.7 macrophages, IL-1a HTRF, actives lie on both sides, screened at 100 nM (by protocol), cells primed 5 h with Pam3CSK4 first
# Method in brief: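 Supernatant IL-1a by HTRF from RAW264.7 cells primed with Pam3CSK4 (5 hours) and transfected with LipidA (24 hour) after 48h siRNA knockdown at 100 nM; cell viability checked with CellTiter-Glo.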
row,Sequence,z-score
1,CCUACUUGUUUUGGGCUGGTT against Olfr1384,inactive: 0.558
2,GGAAAUCAGUUUUCCUGGATT against Olfr649,inactive: 0.177
3,GGCCUCUUUUGGUAUUCCATT against Zfp42,inactive: 0.946
4,CCUUGGAUGCCUUUUACUGTT against Olfr1428,inactive: 0.0584
5,GCCGAGACAAUGGAAAUAATT against Phtf1,inactive: 1.44
6,GCUGAUCUAAGGCUCAAAATT against F830005K03Rik,inactive: 0.804
7,GGUAAGACCUCACUUGGUCTT against Lrrc29,inactive: -0.591
8,GGCCUUUCAUGAAAGCUCATT against Ublcp1,active: -3.07
9,GGGCUCAUGGGAAUUUCUUTT against Vill,inactive: -0.466
10,GGCUUGAUUUCAACCUUGUTT against Atic,inactive: -0.504
11,CUUAAAGGAAUCCUGGUGGTT against Fam169b,inactive: 0.0229
12,GGUUUAUAGGGAAAGAUUUTT against Pde7b,inactive: 0.0706
13,GCGGUUCUAAGGAUACCGATT against Txndc17,active: 2.52
14,GGUCUUGAUUAUAAGCCCATT against Pde4dip,inactive: -0.471
15,CCAUUUUUGCUCAAUUUGCTT against Eif1ax,inactive: -0.943
16,CCCGUUCAUAUACUUCUUUTT against Gpr183,inactive: -0.23
17,GGUACCUGAGUCCAUCUCATT against Sntb1,inactive: -0.219
18,GGAAAACAUGGAGAAGAAATT against Lars,inactive: 0.0824
19,GGUGUCUGGCAAGUACAAATT against Zg16,inactive: 1.53
20,GCAGCAUCCAACUUCCGCUTT against Ffar2,active: 3.35
21,GGUACUAAAGUCAUGUUUGTT against Art2b,inactive: -0.193
22,GCAACGAGUCUACGUCAUCTT against Pex14,inactive: 1.38

row,Sequence,z-score
1,GGCUGUCUCCCUAGUGAAATT against Shroom3,inactive: -0.786
2,GGGCUACAUGAAAAUUCUGTT against Aicda,inactive: -0.146
3,GCGAGUCCUGCCUAUCGAUTT against Pnmt,inactive: -0.166
4,GCGAGUACUUACUCUUCGUTT against Rpl3,inactive: -0.355
5,GGGAGUGAUUCAACAUUACTT against Galk1,inactive: 0.306
6,GGGUUCUUUCUGAGAGAAATT against Tnfrsf1a,inactive: -0.43
7,GCCCAUAACAAAACAUCUATT against Cma1,inactive: 0.924
8,CGGUUGAUGGAAAAAUACATT against Ppef2,active: 2.43
9,GCUGUAUGAUUGCCGAAAUTT against Dagla,inactive: 1.32
10,GCUAAAGAACGUGCCAAUGTT against Tra2b,inactive: 0.898
11,GGAAUUGGUUUCAUUCAUCTT against Impdh1,inactive: 1.03
12,GGAGAAACUCUUCAGGCUUTT against Tceal8,active: -2.19
13,GACACCACAGUCAAAUCUGTT against Agr2,active: -2.26
14,GCUGUGGAAUAAAACUAUUTT against Rsl24d1,inactive: 0.897
15,CGGGAAAUAAUUUUUGGUUTT against Snx4,inactive: 0.756
16,CCAAUUGAUGUCAACAAGUTT against Atp7b,inactive: 0.94
17,GGAACAGAUGAAACCAUUATT against Psmc1,inactive: -1.78
18,GGUGGAUGUUCGCAUGAUUTT against Ip6k1,inactive: -1.2
19,GGUGCAAAGGAUAACUCGGTT against Tfpt,inactive: 1.14
20,CCGGCACUGCUUUUCUACUTT against Ltb4r2,inactive: -0.0313
21,GGAAUACUGCAGUGGCAUCTT against Olfr850,inactive: 0.453
22,CGAAAAAGGGCUUUUAACUTT against Ndufs1,inactive: 0.757

row,Sequence,z-score
1,GGACUGUGACAUAUUCUUUTT against Zfp54,active: 2.74
2,GUUCCCUACAAGUUCUUCCTT against Phox2a,inactive: 1.54
3,GCCUUAAUGUUUCUGUGAGTT against Pag1,inactive: -0.036
4,GGACAUUUUACAGACUCCUTT against Idi2,inactive: -0.73
5,GGUGUUCUGGGAAAUUAAATT against Cdca7,inactive: -1.41
6,GGUAAACUAGACACGAAGCTT against Fgf23,inactive: -0.211
7,GCUAGAUGAACGAGCGAACTT against Slc25a1,inactive: 0.551
8,CCUUAGGUACUCUAAGGAATT against D1Pas1,inactive: -0.109
9,GCUGAAAUAUGUGAGAGCATT against Sdcbp,inactive: 0.016
10,GCACUUCAAUCCAGUGUCUTT against Pdgfd,inactive: -1.27
11,GGUGUUUGCAUUGUACAGGTT against Zfp598,inactive: -0.161
12,GGCUAAGAACCCACAGGAGTT against Emc10,inactive: 0.283
13,CCUUUUACCAAAACACACATT against Zfp148,inactive: -1.02
14,GGCCGAAGUCCAAAAUCUCTT against Ranbp9,inactive: 0.716
15,GCCGAAACCUCUAUAAGCUTT against 4833408A19Rik,inactive: 0.504
16,GCAAGCAUAGAGCAAAUAUTT against Gosr2,inactive: 0.586
17,GCACAUAGUAAGAACUUAUTT against Prorsd1,inactive: -0.774
18,GGCUGACAGGAUUAUCACATT against Hibadh,inactive: -1.25
19,GGACGAAUAGAAAUCAUAGTT against Cd84,inactive: -0.468
20,GGAAAUUCAUGUGACUAUGTT against Vamp7,inactive: -0.359
21,GGCUGUUCAUCAGCAGAUUTT against Nme6,inactive: 0.351
22,GCAAGUCAUAACGAGGACUTT against Akr1b10,inactive: -0.0493

# 3 entries from above in another layout:
row	Sequence	z-score
4	GCGAGUACUUACUCUUCGUTT against Rpl3	inactive: -0.355
5	GGGAGUGAUUCAACAUUACTT against Galk1	inactive: 0.306
6	GGGUUCUUUCUGAGAGAAATT against Tnfrsf1a	inactive: -0.43

# More records follow.

row,Sequence,z-score
1,GCACACGAAGCAUUGACACTT against Fam117b,inactive: -0.137
2,GCUGUUUGAACUCGCCCGATT against Cuedc1,inactive: 0.0772
3,CCAAAAAAUAGUCCGGUUGTT against Cldn34b3,inactive: -0.12
4,GGUCAAGGAGCCACAAUUGTT against Rab30,inactive: -1.11
5,GCCUCUGUCAUUGAAGCUGTT against Sun3,inactive: 1.28
6,CGGAAUAAUCUUGUCUCCGTT against Alox12e,inactive: -0.0183
7,GGCUCAUCAUUUACUUAAUTT against Slc22a3,inactive: -0.954
8,GGGUAUAACAAGACUACAATT against Dctn3,inactive: -0.121
9,GGAUGAACAGCUGUAGAAATT against Ears2,inactive: 0.292
10,CCCAAGCACCAGCCCUAUATT against Frmd8,inactive: -1.58
11,CCCAUGGAACGGGAAGCUUTT against Serpinb9d,inactive: -0.554
12,GGAGGAAUAUCAGUCCCUGTT against Ufc1,inactive: -0.485
13,CCUCCUAAUAUGUUAAUACTT against Gmfb,inactive: -0.235
14,GGCGGAGUUCUCAAGACUUTT against Nudt18,active: 3.55
15,GGACAUUGACAAAAUCAUCTT against Sec14l2,inactive: -1.57
16,GGUGAAGAGGAAGAUCCUGTT against Ctdnep1,inactive: 0.421
17,GCCAGAUCAUUGUAUCAAUTT against Tmx3,inactive: 1.27
18,GGAAGAACAAUUGUGGCAUTT against Abca9,inactive: -1.13
19,GGAAGACAAUGAACUUGUUTT against Loxhd1,inactive: 0.694
20,GGUACUCUCAUUAUCUUUCTT against Tlr8,inactive: -0.217
21,GGUCCAAAACUGUUCUUCUTT against Ackr1,inactive: 0.114
22,GGUUCCUUCGUGAAUGUCATT against Glp1r,inactive: 0.0826

# In another format: entries from further up
row | Sequence | z-score
19 | GGUGCAAAGGAUAACUCGGTT against Tfpt | inactive: 1.14
20 | CCGGCACUGCUUUUCUACUTT against Ltb4r2 | inactive: -0.0313

# Next entries.

row,Sequence,z-score
1,GGGUGAUAGCAAGACACAGTT against Olfr720,inactive: 1.06
2,GGCAAGAGAAUUGUAUACATT against Pck2,inactive: -0.425
3,GCCUGGAUACAAUUACCCUTT against Tc2n,inactive: -0.893
4,GCUACCUUGAAUUUUCCGATT against Fxr2,inactive: 0.664
5,GGAGCUAUGCAUCAUUAAUTT against Srp14,inactive: 0.407
6,CGCGUACGACUUCUACAAATT against Hmgcs2,inactive: 0.775
7,GGCGACAUAUUUUUCAAACTT against Fmn1,inactive: -0.506
8,CCUAUGUAACACAAACAUUTT against Orc5,inactive: 0.721
9,GCAUUCAUUGAUCAAUUCUTT against Zbtb6,active: 2
10,GCUCAAUGCUACUAUAGACTT against Lif,inactive: -0.384
11,GCGUGUCACGUUCCCAUCUTT against Ppp1r37,inactive: 0.428
12,GCCGUAGUAGACAAUCAUGTT against Ankrd28,inactive: -0.123
13,GCUCGUGGUGUCCUUGUUUTT against Atg101,inactive: -1.02
14,GGCUCAGGACUUUGUCUACTT against Lhx4,inactive: -1.19
15,CCAUUCUAGCUGGUUCGAATT against Ifi27,inactive: 1.08
16,CGAAUGCACAUCGUUACUGTT against Fbln2,inactive: 1.1
17,GGAGACCUUUUUGAACCUGTT against Zfp472,inactive: -1.47
18,GGGUAACAACCAUGUCCGUTT against Pspn,inactive: 1.26
19,GGAGAUGACCAAGUGGAAUTT against Pitpnm1,inactive: 0.722
